From publication doi:10.1101/2020.05.28.121731
These are yes or no findings as the source states them, for the method shown. Some results given as binding are weak or reduced against the parent protein; the word gives no strength.

By UniProt entry, the sequences of proteins in these tests, tags left out.
UniProt P37870: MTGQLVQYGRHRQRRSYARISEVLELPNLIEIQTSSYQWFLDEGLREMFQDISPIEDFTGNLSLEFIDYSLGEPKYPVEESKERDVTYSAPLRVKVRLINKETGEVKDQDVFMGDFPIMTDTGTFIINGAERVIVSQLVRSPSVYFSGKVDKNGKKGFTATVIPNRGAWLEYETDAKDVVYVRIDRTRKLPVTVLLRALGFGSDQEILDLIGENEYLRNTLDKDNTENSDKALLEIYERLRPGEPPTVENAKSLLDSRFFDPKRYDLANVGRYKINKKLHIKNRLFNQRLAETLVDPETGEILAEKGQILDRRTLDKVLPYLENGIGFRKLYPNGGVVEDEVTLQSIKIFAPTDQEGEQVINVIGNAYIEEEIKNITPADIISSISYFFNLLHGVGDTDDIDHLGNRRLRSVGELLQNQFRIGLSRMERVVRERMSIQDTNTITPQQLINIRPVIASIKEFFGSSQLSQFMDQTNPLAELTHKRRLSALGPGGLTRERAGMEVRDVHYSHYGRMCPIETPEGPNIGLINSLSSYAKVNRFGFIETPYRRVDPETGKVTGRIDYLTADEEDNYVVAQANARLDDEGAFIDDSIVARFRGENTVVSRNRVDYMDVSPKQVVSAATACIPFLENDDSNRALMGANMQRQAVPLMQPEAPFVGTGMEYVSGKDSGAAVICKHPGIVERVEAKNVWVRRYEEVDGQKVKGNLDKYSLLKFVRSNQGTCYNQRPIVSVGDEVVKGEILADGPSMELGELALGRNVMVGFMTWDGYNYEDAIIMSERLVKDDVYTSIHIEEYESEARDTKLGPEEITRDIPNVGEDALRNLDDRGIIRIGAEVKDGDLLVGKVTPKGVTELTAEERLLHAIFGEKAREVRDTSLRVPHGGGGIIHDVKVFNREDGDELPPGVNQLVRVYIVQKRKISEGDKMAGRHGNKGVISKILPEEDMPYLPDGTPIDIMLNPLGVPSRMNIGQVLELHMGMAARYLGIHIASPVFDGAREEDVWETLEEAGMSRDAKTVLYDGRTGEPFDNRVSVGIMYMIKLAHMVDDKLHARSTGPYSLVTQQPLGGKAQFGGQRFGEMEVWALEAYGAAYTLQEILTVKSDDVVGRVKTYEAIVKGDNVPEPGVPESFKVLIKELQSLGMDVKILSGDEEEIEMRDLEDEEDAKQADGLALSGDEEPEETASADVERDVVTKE

Target: RNA polymerase (RNAP), β subunit RpoB (B. subtilis) (UniProt P37870)
Assay: two-hybrid

B1: B. subtilis Mfd (protein, UniProt P37474 1-1177)
chain: MDNIQTFIKESDDFKSIINGLHEGLKEQLLAGLSGSARSVFTSALANETNKPIFLITHNLYQAQKVTDDLTSLLEDRSVLLYPVNELISSEIAVASPELRAQRLDVINRLTNGEAPIVVAPVAAIRRMLPPVEVWKSSQMLIQVGHDIEPDQLASRLVEVGYERSDMVSAPGEFSIRGGIIDIYPLTSENPVRIELFDTEVDSIRSFNSDDQRSIETLTSINIGPAKELIIRPEEKARAMEKIDSGLAASLKKLKADKQKEILHANISHDKERLSEGQTDQELVKYLSYFYEKPASLLDYTPDNTLLILDEVSRIHEMEEQLQKEEAEFITNLLEEGKILHDIRLSFSFQKIVAEQKRPLLYYSLFLRHVHHTSPQNIVNVSGRQMQSFHGQMNVLAGEMERFKKSNFTVVFLGANKERTQKLSSVLADYDIEAAMTDSKKALVQGQVYIMEGELQSGFELPLMKLAVITEEELFKNRVKKKPRKQKLTNAERIKSYSELQIGDYVVHINHGIGKYLGIETLEINGIHKDYLNIHYQGSDKLYVPVEQIDQVQKYVGSEGKEPKLYKLGGSEWKRVKKKVETSVQDIADDLIKLYAEREASKGYAFSPDHEMQREFESAFPYQETEDQLRSIHEIKKDMERERPMDRLLCGDVGYGKTEVAIRAAFKAIGDGKQVALLVPTTILAQQHYETIKERFQDYPINIGLLSRFRTRKEANETIKGLKNGTVDIVIGTHRLLSKDVVYKDLGLLIIDEEQRFGVTHKEKIKQIKANVDVLTLTATPIPRTLHMSMLGVRDLSVIETPPENRFPVQTYVVEYNGALVREAIERELARGGQVYFLYNRVEDIERKADEISMLVPDAKVAYAHGKMTENELETVMLSFLEGESDVLVSTTIIETGVDIPNVNTLIVFDADKMGLSQLYQLRGRVGRSNRVAYAYFTYRRDKVLTEVAEKRLQAIKEFTELGSGFKIAMRDLTIRGAGNLLGAQQHGFIDSVGFDLYSQMLKEAIEERKGDTAKTEQFETEIDVELDAYIPETYIQDGKQKIDMYKRFRSVATIEEKNELQDEMIDRFGNYPKEVEYLFTVAEMKVYARQERVELIKQDKDAVRLTISEEASAEIDGQKLFELGNQYGRQIGLGMEGKKLKISIQTKGRSADEWLDTVLGMLKGLKDVKKQTISST
  binding: binds
